Among the data in patent US20210206856A1 are binding values, retold here.

Sequences of proteins named here, by UniProt entry; tags and fusion partners are left off. A change or cut given only in a name is not applied to a line headed by its entry. Residues count along the entry.
UniProt Q13477: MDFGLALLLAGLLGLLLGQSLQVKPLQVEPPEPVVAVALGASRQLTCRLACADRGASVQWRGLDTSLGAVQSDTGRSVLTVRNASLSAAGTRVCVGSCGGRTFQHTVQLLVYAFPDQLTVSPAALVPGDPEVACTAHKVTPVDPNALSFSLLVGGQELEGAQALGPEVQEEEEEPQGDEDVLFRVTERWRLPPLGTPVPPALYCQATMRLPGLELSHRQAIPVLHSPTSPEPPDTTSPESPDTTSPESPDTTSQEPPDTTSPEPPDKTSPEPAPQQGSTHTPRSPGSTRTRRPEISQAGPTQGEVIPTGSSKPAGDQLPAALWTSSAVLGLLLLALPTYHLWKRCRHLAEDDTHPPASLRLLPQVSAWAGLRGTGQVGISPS
human MAdCAM expressed on cells: residues 19-382 of Q13477
recombinant human MAdCAM protein: residues 19-317 of Q13477
UniProt Q61826: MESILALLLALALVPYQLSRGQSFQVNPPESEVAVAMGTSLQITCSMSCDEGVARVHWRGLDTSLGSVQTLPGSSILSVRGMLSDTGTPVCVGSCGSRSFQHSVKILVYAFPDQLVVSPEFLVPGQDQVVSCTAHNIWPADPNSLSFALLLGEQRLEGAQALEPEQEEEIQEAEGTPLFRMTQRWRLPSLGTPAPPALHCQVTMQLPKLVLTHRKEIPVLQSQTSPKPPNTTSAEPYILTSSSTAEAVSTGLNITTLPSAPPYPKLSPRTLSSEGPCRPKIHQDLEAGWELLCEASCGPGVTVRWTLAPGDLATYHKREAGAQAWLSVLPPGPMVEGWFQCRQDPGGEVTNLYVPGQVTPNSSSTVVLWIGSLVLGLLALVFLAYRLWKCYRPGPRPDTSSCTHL
mouse MAdCAM expressed on cells: residues 22-405 of Q61826
recombinant mouse MAdCAM-1: residues 22-365 of Q61826

Results are given in words; binding and its absence hold for the method and conditions named. Some binding calls cover weakened binding; strength is not graded here.

Assay [1] concerns the target human MAdCAM expressed on cells (human) (UniProt Q13477). As to the kind of experiment: cell binding.
Assay [2] has as its target recombinant mouse MAdCAM-1 (mouse) (UniProt Q61826). As to the kind of experiment: Octet. A general note: In BLI a coated tip is dipped into the sample, and binding shifts an interference pattern.
For assay [3], the target named is recombinant human MAdCAM protein (human) (UniProt Q13477). As to the kind of experiment: Octet.
Assay [4] has as its target mouse MAdCAM expressed on cells (mouse) (UniProt Q61826). In words: cell binding.

B1: MAdCAM Antibody Table 1 Clone 8 (scFv)
scFv: EVQLLESGGGLVQPGGSLRLSCAASGFMFGDYAMHWVRQAPGKGLEWVSAISGSGGSTYYADSVKGRFTISRDNSKNTLYLQMNSLRAEDTAVYYCAKDLVVAGIWYFDLWGRGTLVTVSSGGGGSGGGGSGGGGSGGGGSDIQMTQSPSSLSASVGDRVTITCRASQGISNNLNWYQQKPGKAPKLLIYDASSLESGVPSRFSGSGSGTDFTLTISSLQPEDFATYYCQQTHSFPSTFGQGTKLEIK
As for B1, in assay [1], the binding result was “binds”.

B2: MAdCAM Antibody Table 2 Clone 4 (antibody, human IgG1, V domains shown)
VH: QVQLVQSGAEVKKPGASVKVSCKASGGTFSSYAISWVRQAPGQGLEWMGSINPSGDTTSYAQKFQGRVTMTRDTSTSTVYMELSSLRSEDTAVYYCAKDKAQWLVGYFDYWGQGTLVTVSS
VL: DIQMTQSPSSLSASVGDRVTITCQASQDISNSLNWYQQKPGKAPKLLIYAASSLQSGVPSRFSGSGSGTDFTLTISSLQPEDFATYYCQQSYSSVITFGQGTKVEIK
As for B2, the binding result in assay [2], in assay [3], in assay [4] and in assay [1] was “binds” in each case.

B3: MAdCAM Antibody Table 1 Clone 9 (scFv)
scFv: EVQLLESGGGLVQPGGSLRLSCAASGFTFSDYYMNWVRQAPGKGLEWVSVIGESGGSTYYADSVKGRFTISRDNSKNTLYLQMNSLRAEDTAVYYCAADPVSRWPKHGGGDYWGQGTLVTVSSGGGGSGGGGSGGGGSGGGGSDIQMTQSPSSLSASVGDRVTITCRASQGISSSLAWYQQKPGKAPKLLIYAASTLQSGVPSRFSGSGSGTDFTLTISSLQPEDFATYYCQQSYSTPWTFGQGTKVEIK
Turning to B3, the binding entry in assay [2], in assay [3], in assay [4] and in assay [1] was “binds” throughout.

B4: MAdCAM Antibody Table 2 Clone 2 (antibody, human IgG1, V domains shown)
VH: QVQLVQSGAEVKKPGASVKVSCKASGYPFIGYYLHWVRQAPGQGLEWMGIINPSGGSTSYAQKFQGRVTMTRDTSTSTVYMELSSLRSEDTAVYYCAREGRLSYGMDAWGQGTLVTVSS
VL: DIQMTQSPSSLSASVGDRVTITCRASQSISSYLAWYQQKPGKAPKLLIYGASTLESGVPSRFSGSGSGTDFTLTISSLQPEDFATYYCQQTWGPPFTFGQGTKLEIK
With B4, the binding result in assay [4] and in assay [1] was “binds” each time.

B5: MAdCAM Antibody Table 2 Clone 35 (antibody, human IgG1, V domains shown)
VH: QVQLVQSGAEVKKPGASVKVSCKASGYTFTGYYIHWVRQAPGQGLEWMGWMNPNSGNTGYAQKFQGRVTMTRDTSTSTVYMELSSLRSEDTAVYYCARDPGFLGYSSGGSSYDGWFDPWGQGTLVTVSS
VL: DIQMTQSPSSLSASVGDRVTITCRASQSISSYLHWYQQKPGKAPKLLIYAASSLQSGVPSRFSGSGSGTDFTLTISSLQPEDFATYYCQQSYTAPYTFGQGTKLEIK
On to B5, for which the binding entry in assay [1] is given as “binds”.

B6: MAdCAM Antibody Table 2 Clone 3 (antibody, human IgG1, V domains shown)
VH: QVQLVQSGAEVKKPGASVKVSCKASGYPFIGQYLHWVRQAPGQGLEWMGIINPSGGSTSYAQKFQGRVTMTRDTSTSTVYMELSSLRSEDTAVYYCAREGRLSYGMDAWGQGTLVTVSS
VL: DIQMTQSPSSLSASVGDRVTITCRASQSISSYLAWYQQKPGKAPKLLIYGASTLESGVPSRFSGSGSGTDFTLTISSLQPEDFATYYCQQTWGPPFTFGQGTKLEIK
On to B6, for which the binding result in assay [4] and in assay [1] was “binds” each time.

B7: MAdCAM Antibody Table 2 Clone 5 (antibody, human IgG1, V domains shown)
VH: EVQLLESGGGLVQPGGSLRLSCAASGFTFSSYWMHWVRQAPGKGLEWVSSISPGGSNIDYADSVKGRFTISRDNSKNTLYLQMNSLRAEDTAVYYCAREVQLSHYDYWGQGTLVTVSS
VL: DIQMTQSPSSLSASVGDRVTITCRASQGISNSLAWYQQKPGKAPKLLIYGASSLQSGVPSRFSGSGSGTDFTLTISSLQPEDFATYYCQQANSFPFTFGQGTKVEIK
B7: the binding entry in assay [2], in assay [3], in assay [4] and in assay [1] was “binds” throughout.

B8: MAdCAM Antibody Table 1 Clone 5 (scFv)
scFv: EVQLLESGGGLVQPGGSLRLSCAASGFTFSSYWMHWVRQAPGKGLEWVSSISPGGSNIDYADSVKGRFTISRDNSKNTLYLQMNSLRAEDTAVYYCAREVQLSHYDYWGQGTLVTVSSGGGGSGGGGSGGGGSGGGGSDIQMTQSPSSLSASVGDRVTITCRASQGISNSLAWYQQKPGKAPKLLIYGASSLQSGVPSRFSGSGSGTDFTLTISSLQPEDFATYYCQQANSFPFTFGQGTKVEIK
Turning to B8, the binding result in assay [2] and in assay [3] was “binds” each time.

B9: MAdCAM Antibody Table 2 Clone 32 (antibody, human IgG1, V domains shown)
VH: QVQLVQSGAEVKKPGASVKVSCKASGYTLTTWYMYWVRQAPGQGLEWMGWINPNRGATNYAQKFQGRVTMTRDTSTSTVYMELSSLRSEDTAVYYCAKGDLWGAMDVWGQGTLVTVSS
VL: DIQMTQSPSSLSASVGDRVTITCRASDNIGSWLAWYQQKPGKAPKLLIYAASSLQSGVPSRFSGSGSGTDFTLTISSLQPEDFATYYCQQGYSTPPTFGQGTKVEIK
For B9, the binding entry in assay [1] is recorded as “binds”.

B10: MAdCAM Antibody Table 1 Clone 25 (scFv)
scFv: QVQLVQSGAEVKKPGASVKVSCKASGYTLTTWYMYWVRQAPGQGLEWMGWINPNRGATNYAQKFQGRVTMTRDTSTSTVYMELSSLRSEDTAVYYCAKGDLWGAMDVWGQGTLVTVSSGGGGSGGGGSGGGGSGGGGSDIQMTQSPSSLSASVGDRVTITCRASDNIGSWLAWYQQKPGKAPKLLIYAASSLQSGVPSRFSGSGSGTDFTLTISSLQPEDFATYYCQQGYSTPPTFGQGTKVEIK
On to B10, for which the binding entry in assay [1] is “binds”.

B11: MAdCAM Antibody Table 1 Clone 30 (scFv)
scFv: QVQLVQSGAEVKKPGASVKVSCKASGYTLTTWYMYWVRQAPGQGLEWMGWINPNRGATNYAQKFQGRVTMTRDTSTSTVYMELSSLRSEDTAVYYCAKGDLWGAMDVWGQGTLVTVSSGGGGSGGGGSGGGGSGGGGSDIQMTQSPSSLSASVGDRVTITCRASDNIGSWLAWYQQKPGKAPKLLIYAASSLQSGVPSRFSGSGSGTDFTLTISSLQPEDFATYYCQQGYSTPPTFGQGTKVEIK
On to B11, for which, in assay [1], the binding entry is listed as “binds”.

B12: MAdCAM Antibody Table 1 Clone 7 (scFv)
scFv: QVQLVQSGAEVKKPGASVKVSCKASGYTFTGYHIHWVRQAPGQGLEWMGIINPSGGSTIYAQKFQGRVTMTRDTSTSTVYMELSSLRSEDTAVYYCAKDWSSWYLGPFDYWGQGTLVTVSSGGGGSGGGGSGGGGSGGGGSDIQMTQSPSSLSASVGDRVTITCRASQNISSSLNWYQQKPGKAPKLLIYAASSLQSGVPSRFSGSGSGTDFTLTISSLQPEDFATYYCQQSYTTPYTFGQGTKVEIK
On to B12, for which the binding entry in assay [2] and in assay [3] was “binds” each time.
